No constants are given. Whether binding was seen depends on the method and setting.
B1: Aux/IAA8 (protein, UniProt Q38826 1-321)
chain: MSYRLLSVDKDELVTSPCLKERNYLGLSDCSSVDSSTIPNVVGKSNLNFKATELRLGLPESQSPERETDFGLLSPRTPDEKLLFPLLPSKDNGSATTGHKNVVSGNKRGFADTWDEFSGVKGSVRPGGGINMMLSPKVKDVSKSIQEERSHAKGGLNNAPAAKAQVVGWPPIRSYRKNTMASSTSKNTDEVDGKPGLGVLFVKVSMDGAPYLRKVDLRTYTSYQQLSSALEKMFSCFTLGQCGLHGAQGRERMSEIKLKDLLHGSEFVLTYEDKDGDWMLVGDVPWEIFTETCQKLKIMKGSDSIGLAPGAVEKSKNKERV
B2: Aux/IAA10 (protein, UniProt Q38828 1-261)
chain: MNGLQEVCSSSGSVMIGLPAEEDENAAHSSEDSSCPDESVSETELDLALGLSIGRRKVRSSLSSSSSSLTRESGTKRSADSSPAAASNATRQVAVGWPPLRTYRINSLVNQAKSLATEGGLSSGIQKETTKSVVVAAKNDDACFIKSSRTSMLVKVTMDGVIIGRKVDLNALDSYAALEKTLDLMFFQIPSPVTRSNTQGYKTIKETCTSKLLDGSSEYIITYQDKDGDWMLVGDVPWQMFLGSVTRLRIMKTSIGAGVGK
B3: Aux/IAA9 (protein, UniProt Q38827 1-338)
chain: MSPEEELQSNVSVASSSPTSNCISRNTLGGLKEHNYLGLSDCSSVGSSTLSPLAEDDKATISLKATELTLGLPGSQSPARDTELNLLSPAKLDEKPFFPLLPSKDEICSSSQKNNASGNKRGFSDTMDQFAEAKSSVYTEKNWMFPEAAATQSVTKKDVPQNIPKGQSSTTNNSSSPPAAKAQIVGWPPVRSYRKNTLATTCKNSDEVDGRPGSGALFVKVSMDGAPYLRKVDLRSYTNYGELSSALEKMFTTFTLGQCGSNGAAGKDMLSETKLKDLLNGKDYVLTYEDKDGDWMLVGDVPWEMFIDVCKKLKIMKGCDAIGLAAAPRAMEKSKMRA
B4: Aux/IAA11 (protein, UniProt Q38829 1-246)
chain: MEGGSASGSASALSNDENLVVSCEDSSSPIGNELELGLTLSLGRKGYRDCRVYADDSSSSSSSSSLSRASVIAGIKRTADSMAATSGQVVGWPPIRTYRMNSMVNQAKASATEDPNLEISQAVNKNRSDSTKMRNSMFVKVTMDGIPIGRKIDLNAHKCYESLSNTLEEMFLKPKLGSRTLETDGHMETPVKILPDGSSGLVLTYEDKEGDWMLVGDVPWGMFIGSVRRLRIMKTSEATGKAQMIL

Protein sequences, listed by entry. Tags and fused reporters are not part of them. Lines headed by an entry give the natural chain unless they say otherwise; changes in a name come on top.
UniProt Q9FX25: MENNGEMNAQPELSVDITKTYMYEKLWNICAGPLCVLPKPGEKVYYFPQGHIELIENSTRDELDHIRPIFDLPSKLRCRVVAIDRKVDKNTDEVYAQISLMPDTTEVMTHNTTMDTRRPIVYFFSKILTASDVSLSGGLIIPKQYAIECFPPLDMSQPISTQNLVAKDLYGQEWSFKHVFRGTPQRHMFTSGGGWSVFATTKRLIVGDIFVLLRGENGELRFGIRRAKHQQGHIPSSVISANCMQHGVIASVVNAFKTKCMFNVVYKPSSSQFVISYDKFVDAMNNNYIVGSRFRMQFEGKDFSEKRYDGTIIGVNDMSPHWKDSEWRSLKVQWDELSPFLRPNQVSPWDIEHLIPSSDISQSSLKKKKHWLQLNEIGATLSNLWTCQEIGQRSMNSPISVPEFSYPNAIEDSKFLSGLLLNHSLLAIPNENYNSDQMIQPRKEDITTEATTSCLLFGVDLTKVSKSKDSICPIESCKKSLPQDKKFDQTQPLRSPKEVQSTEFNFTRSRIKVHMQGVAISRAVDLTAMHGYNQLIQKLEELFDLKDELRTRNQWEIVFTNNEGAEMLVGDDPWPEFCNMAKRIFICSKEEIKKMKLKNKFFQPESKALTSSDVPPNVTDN

Molecular target: ARF13 (Arabidopsis thaliana) (UniProt Q9FX25)
Assay: two-hybrid; S. cerevisiae AH109 co-transformed with pGBKT7-ARF (bait) and pGADT7-Aux/IAA (prey); growth on SD/-Ade-His-Leu-Trp against SD/-Leu/-Trp; at least 10 independent colonies; serial dilutions for strength

binding, no binding:
B1
B2
B3
B4

Reference: article PMC4274898
